Experimental data as given in PMC5039643, “Independent multimerization of Latent TGFβ Binding Protein-1 stabilized by cross-linking and enhanced by heparan sulfate” (Scientific Reports, 2016).
No constants are given. Whether binding was seen depends on the method and setting.

Legend:
[1] = target: LTBP1 C-terminal construct CT (residues 1002–1395) (UniProt Q14766); assay: cross-linking; transglutaminase-2 (guinea pig liver) at 0.1:1, 2 hours at 30 °C, 10 mM Hepes, 150 mM NaCl pH 7.4, 1 mM CaCl2; each construct alone; western blot with anti-histidine antibody; both purified
[2] = target: LTBP1 C-terminal construct CT (residues 1002–1395) (UniProt Q14766); assay: SEC-MALS; Superdex 200 or Superose 6; 0.5 ml at ~0.5 mg/ml; 10 mM Tris, 150 mM NaCl, 2 mM CaCl2, pH 7.4; self-association; NT2 monomer also stored overnight at 4 °C in 2 mM calcium and the dimer fraction rerun; both purified
[3] = target: LTBP1 C-terminal construct CT (residues 1002–1395) (UniProt Q14766); assay: AUC; ~0.5 mg/ml; 10 mM Tris, 150 mM NaCl, 2 mM CaCl2, pH 7.4; self-association; NT1 also after 12 h pre-incubation with ~10x molar excess of low molecular weight heparin; both purified
[4] = target: LTBP1 EGF region (residues 526–1014) (UniProt Q14766); assay: cross-linking; transglutaminase-2 (guinea pig liver) at 0.1:1, 2 hours at 30 °C, 10 mM Hepes, 150 mM NaCl pH 7.4, 1 mM CaCl2; each construct alone; western blot with anti-histidine antibody; both purified
[5] = target: LTBP1 EGF region (residues 526–1014) (UniProt Q14766); assay: SEC-MALS; Superdex 200 or Superose 6; 0.5 ml at ~0.5 mg/ml; 10 mM Tris, 150 mM NaCl, 2 mM CaCl2, pH 7.4; self-association; NT2 monomer also stored overnight at 4 °C in 2 mM calcium and the dimer fraction rerun; both purified
[6] = target: LTBP1 EGF region (residues 526–1014) (UniProt Q14766); assay: AUC; ~0.5 mg/ml; 10 mM Tris, 150 mM NaCl, 2 mM CaCl2, pH 7.4; self-association; NT1 also after 12 h pre-incubation with ~10x molar excess of low molecular weight heparin; both purified
[7] = target: LTBP1 N-terminal construct NT2 (residues 21–630) (UniProt Q14766); assay: AUC; NT2 with 2 mM EDTA in place of calcium; both purified
[8] = target: LTBP1 N-terminal construct NT2 (residues 21–630) (UniProt Q14766); assay: SEC-MALS; NT2 monomer stored overnight at 4 °C in 2 mM EGTA; Superose 6 column; both purified

In the case of “LTBP1 C-terminal construct CT (residues 1002–1395) (from UniProt Q14766-2 1002-1395) (domain or fragment)”, the binding [1] is reported as “no binding”, the binding [2] is reported as “no binding (tested: ~0.5 mg ml^-1)” and the binding [3] is reported as “no binding (tested: ~0.5 mg ml^-1)”.

B1: LTBP1 EGF region (residues 526–1014) (domain or fragment, UniProt Q14766-2 526-1014)
chain: EVAPEASTSSASQVIAPTQVTEINECTVNPDICGAGHCINLPVRYTCICYEGYRFSEQQRKCVDIDECTQVQHLCSQGRCENTEGSFLCICPAGFMASEEGTNCIDVDECLRPDVCGEGHCVNTVGAFRCEYCDSGYRMTQRGRCEDIDECLNPSTCPDEQCVNSPGSYQCVPCTEGFRGWNGQCLDVDECLEPNVCANGDCSNLEGSYMCSCHKGYTRTPDHKHCRDIDECQQGNLCVNGQCKNTEGSFRCTCGQGYQLSAAKDQCEDIDECQHRHLCAHGQCRNTEGSFQCVCDQGYRASGLGDHCEDINECLEDKSVCQRGDCINTAGSYDCTCPDGFQLDDNKTCQDINECEHPGLCGPQGECLNTEGSFHCVCQQGFSISADGRTCEDIDECVNNTVCDSHGFCDNTAGSFRCLCYQGFQAPQDGQGCVDVNECELLSGVCGEAFCENVEGSFLCVCADENQEYSPMTGQCRSRTSTDLDVDVD
For B1, the binding [4] was “no binding”, the binding [5] was “no binding (tested: ~0.5 mg ml^-1)” and the binding [6] was “no binding (tested: ~0.5 mg ml^-1)”.

B2: LTBP1 N-terminal construct NT2 (residues 21–630) (domain or fragment, UniProt Q14766-2 21-630, looked up)
chain: NHTGRIKVVFTPSICKVTCTKGSCQNSCEKGNTTTLISENGHAADTLTATNFRVVICHLPCMNGGQCSSRDKCQCPPNFTGKLCQIPVHGASVPKLYQHSQQPGKALGTHVIHSTHTLPLTVTSQQGVKVKFPPNIVNIHVKHPPEASVQIHQVSRIDGPTGQKTKEAQPGQSQVSYQGLPVQKTQTIHSTYSHQQVIPHVYPVAAKTQLGRCFQETIGSQCGKALPGLSKQEDCCGTVGTSWGFNKCQKCPKKPSYHGYNQMMECLPGYKRVNNTFCQDINECQLQGVCPNGECLNTMGSYRCTCKIGFGPDPTFSSCVPDPPVISEEKGPCYRLVSSGRQCMHPLSVHLTKQLCCCSVGKAWGPHCEKCPLPGTAAFKEICPGGMGYTVSGVHRRRPIHHHVGKGPVFVKPKNTQPVAKSTHPPPLPAKEEPVEALTFSREHGPGVAEPEVATAPPEKEIPSLDQEKTKLEPGQPQLSPGISTIHLHPQFPVVIEKTSPPVPVEVAPEASTSSASQVIAPTQVTEINECTVNPDICGAGHCINLPVRYTCICYEGYRFSEQQRKCVDIDECTQVQHLCSQGRCENTEGSFLCICPAGFMASEEGTNCI
notes: LTBP1S residues 21-630; also called NT2 region
In the case of B2, the binding [7] is reported as “no binding (condition: with 2 mM EDTA)” and the binding [8] is reported as “no binding (condition: with 2 mM EGTA)”.
